Assay results taken from patent US20120295838A1, “Selective poly-substituted glycine antibiotics and related compositions” (priority 2008, published 2012).
For some of these results: Part of at least one peptide drawing is inferred or uncertain, most often the ends. For some of these results: At least one structure is not confirmed: it was looked up by name or label, or the drawing left a doubt. Square brackets hold non-standard residues; d marks the D form. Peptide text beside a SMILES is read from it. Nspe = C[C@H](NCC(=O)O)c1ccccc1; Nphe = O=C(O)CNCc1ccccc1; Nlys = NCCCCNCC(=O)O

Tests used:
[1] = system: NIH 3T3 mouse fibroblast cells; test: MTS assay, NIH 3T3 cells; type: cell-based; conditions: Table 6; 50% inhibitory dose against NIH 3T3 mouse fibroblast cells
Method: The potencies of all compounds were determined against representative Gram-negative (E. coli ATCC 35218) and Gram-positive (B. subtilis ATCC 6633) biosafety level 1 (BSL1) organisms. In addition to hemolytic activity, the conventional measure of toxicity to mammalian cells, the effect of each ampetoid on NIH 3T3 mouse fibroblast cells was determined using the MTS tetrazolium salt-based colorimetric assay. While hemolysis measures the degree to which erythrocytes are lysed, the MTS assay indirectly quantifies the extent to which cellular metabolic activity is inhibited.
MTS assays. NIH/3T3 cells (ATCC Corporation) cultured at 37° C. and 5% CO2 in complete Dulbecco's modified eagle's media (CDMEM) supplemented with 1% sodium pyruvate, 1% penicillin-streptomycin, 1.5 g/L NaHCO3, and 10% fetal bovine serum. Cells were seeded at a density of 5,000 cells per well for NIH/3T3 cells in 96-well plates (100 μl total volume). A peptoid solution plate (100 μL total volume per well) was prepared by serial dilution of aqueous peptoid stock solution in Hank's balanced salt solution (HBSS) media. The day-old cell monolayers were washed with HBSS and media was replaced with 100 μL HBSS. […] After incubating for 3 hours at 37° C., absorbance at 490 nm was determined. […]

[2] = RP-HPLC solvent composition at elution as measure of molecular hydrophobicity; type: physicochemical; conditions: Table 8; gradient 5 to 95% ACN over 45 min, C18 column, 0.2 ml/min; average of three replicates
Source text: An initial set of 15 ampetoid analogs was synthesized to determine whether peptoids are affected by structural and sequence modifications in a manner consistent with AMP activities. The designs for ampetoids in this library were derived from two antibacterial and selective amphipathic dodecamers, 1 and 2. Peptoid 1 [H-(Nlys-Nspe-Nspe)4-NH2] is composed of 2/3 Nspe, the peptoid analog of phenylalanine, and 1/3 Mys, the peptoid analog of lysine (see FIG. 1 for the structures of representative peptoid monomers and corresponding N-substituents). Peptoid 2 [H-(Mys-Nssb-Nspe)4-NH2] contains 1/3 isoleucine-like Nssb monomers in place of Nspe. […] As an initial measure of selectivity, the lytic activity of the peptoids was determined against human erythrocytes. […]
Following synthesis, peptoid oligomers can be cleaved from the resin, simultaneously removing the tert-butoxycarbonyl (Boc) protecting group from Mys residues, by treatment with 10 ml 2,2,2-trifluoroacetic acid (TFA)/triisopropylsilane/H2O (95:2.5:2.5 by volume) for 30 min. […] Following prep HPLC, peptoid purities and crude yields were determined from analytical scale HPLC, performed with a Waters 2695 Separations Module with a Waters 2487 dual-wavelength UV detector and gradient elution (solvent A, 0.1 vol % TFA in water; solvent B, 0.1 vol % TFA in acetonitrile) through a Vydac C4 214TP53 peptide/protein column (5 μm, 300 Å, 3.2×250 mm). […]

E. coli ATCC 35218 = type: cell-based; conditions: Table 8; calculated as HD10/E. coli MIC
Method: Whereas the preceding generation of molecules was designed to elucidate structure function relationships of specific molecular parameters (chirality, length, hydrophobicity, etc.), another generation compounds were designed explicitly to explore effects on selectivity. Antimicrobial activity of these compounds was tested against bacterial strains E. coli (ATTC 35218) and B. subtilis (ATTC 6633) in cation-adjusted MHB using the microdilution protocols previously described. The sequences, antimicrobial activities, hemolytic activities, and metabolic inhibitory concentrations against NIH 3T3 mouse fibroblast cells are summarized in Table 3 and the rationale of their design is described below.
Screening antibacterial assays. MICs were determined in 96-well microtiter plates in accordance with CLSI M7-A6 protocols. Peptoid solutions with 50 μL total volume were prepared using 2:1 serial dilutions. 50 i—tL of bacteria inoculum (1×10^6 CFU/mL) prepared in cation-adjusted Mueller-Hinton broth (CAMHB) was added to test wells. Control wells contained 100 μL MHB (no growth) or 50 μL inoculums with 50 μL MHB with no peptoid. […] Reported values were reproducible over three experiments, each containing two parallel trials.
Antibacterial Assays for Compositions. MICs were determined according to CLSI M7-A6 protocols in a 96-well microtiter plate. […]

[3] = system: Staphyloccus aureus (ATCC #25923); test: Murine intraperitoneal infection model; type: in vivo; conditions: mouse, S. aureus I.P., 4 mg/kg peptoid I.P. four hours post infection, 24 hours; vs saline treated controls
Method: Using a murine peritoneal injection mouse model, the ability of peptoids to treat infection was evaluated in vivo. The results from three separate studies of peptoid 1 and two of peptoid 1-Nhis6,12 against saline treated controls are shown in FIG. 7. The horizontal line represents the geometric mean of each population.
Murine intraperitoneal infection model. Bacteria was prepared by inoculating 5 mL of MHB with a single colony of Staphyloccus aureus (ATCC #25923) from a freshly streaked plate and grown overnight at 37 C. The following morning, the bacteria was subcultured by diluting 1/3 in MHB and grown for approximately 1 .5 hours. The bacteria were then diluted 10-fold in a 5% mucin in PBS solution and thoroughly mixed. A sample was reserved to later determine the amount of bacteria the mice received.
Mice were weighed, marked, and injected I.P. with 200 uL of S. aureus inoculum. Four hours post infection, mice were treated I.P. with 4 mg/kg peptoid (˜100 ug per mouse). The infection is allowed to proceed overnight. Mice were euthanized by CO2 asphyxiation after 24 hours, and the peritoneal cavity was exposed and lavaged with 5 mL PBS. The lavage was mixed and reserved on ice until plating. […] Colonies were counted the following day, and the CFU/ml of each sample was calculated. […]

| SMILES | ID50 [1] [µM] | % ACN at RP-HPLC elution [2] [% ACN] | SR (E. coli ATCC 35218) | bacterial counts from the peritoneal lavage [3] |
| --- | --- | --- | --- | --- |
| NCCCCNCC(=O)N(CC(=O)N(CC(=O)N(CCCCN)CC(=O)N(CC(=O)N(CC(=O)N(CCCCN)CC(=O)N(CC(=O)N(CC(=O)N(CCCCN)CC(=O)N(CC(=O)N(CC(N)=O)Cc1ccccc1)Cc1ccccc1)Cc1ccccc1)Cc1ccccc1)Cc1ccccc1)Cc1ccccc1)Cc1ccccc1)Cc1ccccc1 [1achiral, H-(Nlys-Npm-Npm)4-NH2] (H-[Nlys][Nphe][Nphe][Nlys][Nphe][Nphe][Nlys][Nphe][Nphe][Nlys][Nphe][Nphe]-NH2) | 16 |  |  |  |
| C[C@@H](c1ccccc1)N(CC(N)=O)C(=O)CN(C(=O)CN(CCCCN)C(=O)CN(C(=O)CN(C(=O)CN(CCCCN)C(=O)CN(C(=O)CN(C(=O)CN(CCCCN)C(=O)CN(C(=O)CN(C(=O)CNCCCCN)[C@@H](C)c1ccccc1)[C@@H](C)c1ccccc1)[C@@H](C)c1ccccc1)[C@@H](C)c1ccccc1)[C@@H](C)c1ccccc1)[C@@H](C)c1ccccc1)[C@@H](C)c1ccccc1 [compound 1, H-(NLys-Nspe-Nspe)4-NH2] (H-[Nlys][Nspe][Nspe][Nlys][Nspe][Nspe][Nlys][Nspe][Nspe][Nlys][Nspe][Nspe]-NH2) |  | 65.1 | 2.2 | significantly reduced |
